Paper PMC8533070
Results are given in words; binding and its absence hold for the method and conditions named. Some results given as binding are weak or reduced against the parent protein; the word gives no strength. Tags and fused reporters may be left off the sequences shown.

Assays:
Settings in all cases: remark: other sources report otherwise
[1] = biological target: T1, human NUP58 nucleoporin, full-length, fused with His6 tag (human), Q9BVL2; assay: SDD-AGE (semi-denaturing detergent agarose gel electrophoresis); purified NUP58 after incubation in non-denaturing conditions, 0 h against 96 h; 1.5-2% agarose; with or without 2% BME, boiled or unboiled; Western blot with anti-His antibody; both purified
T1 chain: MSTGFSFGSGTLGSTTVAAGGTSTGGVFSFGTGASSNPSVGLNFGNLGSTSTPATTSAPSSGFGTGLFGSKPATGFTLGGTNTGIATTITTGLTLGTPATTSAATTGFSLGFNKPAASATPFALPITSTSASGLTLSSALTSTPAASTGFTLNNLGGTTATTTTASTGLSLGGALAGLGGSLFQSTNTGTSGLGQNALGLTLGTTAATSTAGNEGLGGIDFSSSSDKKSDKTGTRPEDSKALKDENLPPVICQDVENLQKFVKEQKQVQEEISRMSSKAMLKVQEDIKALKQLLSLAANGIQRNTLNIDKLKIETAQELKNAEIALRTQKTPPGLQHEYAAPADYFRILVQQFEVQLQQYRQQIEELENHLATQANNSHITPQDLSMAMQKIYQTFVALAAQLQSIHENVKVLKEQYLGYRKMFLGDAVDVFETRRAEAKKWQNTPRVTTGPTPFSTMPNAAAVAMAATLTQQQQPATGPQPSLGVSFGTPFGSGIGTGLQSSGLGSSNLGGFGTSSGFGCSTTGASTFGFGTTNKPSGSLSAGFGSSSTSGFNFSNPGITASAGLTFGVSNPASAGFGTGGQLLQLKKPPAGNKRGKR

[2] = biological target: T1, human NUP58 nucleoporin, full-length, …; assay: SDS-PAGE of boiled and unboiled samples (SDS-resistant aggregates); purified NUP58 at 1 mg/mL in 5 mM potassium phosphate pH 5.8, 150 mM NaCl, 37 °C, slow rotation; 0 h against 96 h; Coomassie staining; both purified
[3] = biological target: T1, human NUP58 nucleoporin, full-length, …; assay: SDS-PAGE with additional gel boiling (aggregated and soluble fractions); purified NUP58 after incubation in non-denaturing conditions, 0 h against 96 h; Western blot with anti-His antibody; both purified

binding [1]: binds | binding [2]: binds | binding [3]: binds
B1: human NUP58 nucleoporin, full-length, fused with His6 tag, Q9BVL2-1 1-599 (protein)
chain: T1 chain
